The supplement of paper PMC9233669
Variants at the floor of the assay are shown more often than the library holds them.

Experiments:
biotinyl-Trp-oxazolone = test: self-aminoacylation, catalytic enhancement (BWO) (fold over background); higher = more active; k-Seq, kA / k0A0; sequences stand for … in GGGAAUGGAUCCACAUCUACGAAUUC…UUCACUGCAGACUUGACGAAGCUG
How it was run: (§1)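 Mutagenized RNA pools (0.43 μM; 21-nt variable region) were treated with 2–1250 μM of each biotinyl-aminoacyl-oxazolone. Conditions were 50 μL HEPES/NaCl/KCl/MgCl2/CaCl2 buffer, 5% acetonitrile, pH 6.9–7.0, room temperature, 90 minutes. Catalytic enhancement, the median kA relative to the uncatalyzed rate, was derived from streptavidin capture, qPCR and Illumina sequencing.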

biotinyl-Phe-oxazolone = test: self-aminoacylation, catalytic enhancement (BFO) (fold over background); higher = more active; k-Seq, kA / k0A0; sequences stand for … in GGGAAUGGAUCCACAUCUACGAAUUC…UUCACUGCAGACUUGACGAAGCUG
How it was run: as §1

biotinyl-Ile-oxazolone = test: self-aminoacylation, catalytic enhancement (BIO) (fold over background); higher = more active; k-Seq, kA / k0A0; sequences stand for … in GGGAAUGGAUCCACAUCUACGAAUUC…UUCACUGCAGACUUGACGAAGCUG
How it was run: as §1

biotinyl-Val-oxazolone = test: self-aminoacylation, catalytic enhancement (BVO) (fold over background); higher = more active; k-Seq, kA / k0A0; sequences stand for … in GGGAAUGGAUCCACAUCUACGAAUUC…UUCACUGCAGACUUGACGAAGCUG
How it was run: as §1

biotinyl-Leu-oxazolone = test: self-aminoacylation, catalytic enhancement (BLO) (fold over background); higher = more active; k-Seq, kA / k0A0; sequences stand for … in GGGAAUGGAUCCACAUCUACGAAUUC…UUCACUGCAGACUUGACGAAGCUG
How it was run: as §1

biotinyl-Met-oxazolone = test: self-aminoacylation, catalytic enhancement (BMO) (fold over background); higher = more active; k-Seq, kA / k0A0; sequences stand for … in GGGAAUGGAUCCACAUCUACGAAUUC…UUCACUGCAGACUUGACGAAGCUG
How it was run: as §1

Row | Sequence | self-aminoacylation (biotinyl-Trp-oxazolone) | self-aminoacylation (biotinyl-Phe-oxazolone) | self-aminoacylation (biotinyl-Ile-oxazolone) | self-aminoacylation (biotinyl-Val-oxazolone) | self-aminoacylation (biotinyl-Leu-oxazolone) | self-aminoacylation (biotinyl-Met-oxazolone)
1 | CUACAUCACACAAUCGGUCUG [Fam1A.1 aminoacylation ribozyme variant] | 0.687 | 1.21 | 0.882 | 0.868 | 0.827 | 0.842
2 | CUACCACAAACAAUCGGUCUG [Fam1A.1 aminoacylation ribozyme variant] | 0.664 | 1.33 | 0.812 | 0.805 | 0.568 | 0.75
3 | CUACCCCAAACAAUCGGUCUG [Fam1A.1 aminoacylation ribozyme variant] | 0.653 | 0.461 | 0.851 | 1.07 | 0.891 | 0.944
4 | CUACCUCAAACAAUCGAUCUG [Fam1A.1 aminoacylation ribozyme variant] | 0.479 | 0.974 | 0.678 | 0.581 | 0.645 | 0.582
5 | CUACCUCAAACAAUCGGCCUG [Fam1A.1 aminoacylation ribozyme variant] | 5.05 | 3.13 | 1.87 | 1.86 | 2.11 | 1.47
6 | CUACCUCAAUCAAUCGGUCUG [Fam1A.1 aminoacylation ribozyme variant] | 1.44 | 1.85 | 0.8 | 0.871 | 0.785 | 0.828
7 | CUACCUCGAACAAUCGGUCUG [Fam1A.1 aminoacylation ribozyme variant] | 0.876 | 0.586 | 0.912 | 1.11 | 1.15 | 0.79
8 | CUACGUCAAACAAUCAGUCUG [Fam1A.1 aminoacylation ribozyme variant] | 0.646 | 1.05 | 0.884 | 0.792 | 0.808 | 0.824
9 | CUACGUCAAACAAUCGCUCUG [Fam1A.1 aminoacylation ribozyme variant] | 1.16 | 3.08 | 1.71 | 1.7 | 2.07 | 1.85
10 | CUACGUCAAACAAUCGGUCGG [Fam1A.1 aminoacylation ribozyme variant] | 1.18 | 1.23 | 1.12 | 1.19 | 1.62 | 1.33
11 | CUACGUCAAACAAUCUGUCUG [Fam1A.1 aminoacylation ribozyme variant] | 0.435 | 1.01 | 0.907 | 0.821 | 0.806 | 0.872
12 | CUACUACAAACAAUCGGUUUG [Fam1A.1 aminoacylation ribozyme variant] | 0.473 | 0.865 | 0.625 | 0.606 | 0.518 | 0.535
13 | CUACUACAAGCAAUCGGUCUG [Fam1A.1 aminoacylation ribozyme variant] | 0.633 | 0.604 | 0.742 | 0.715 | 0.926 | 0.605
14 | CUACUACAGACAAUCGGUCUG [Fam1A.1 aminoacylation ribozyme variant] | 0.482 | 0.614 | 0.801 | 0.796 | 1.05 | 0.694
15 | CUACUAUAAACAAUCGGUCUG [Fam1A.1 aminoacylation ribozyme variant] | 0.766 | 0.742 | 0.808 | 0.928 | 0.805 | 0.803
16 | CUACUCCAAACAACCGGUCUG [Fam1A.1 aminoacylation ribozyme variant] | 1.26 | 0.699 | 1.17 | 1.1 | 0.9 | 0.806
17 | CUACUCCAAACAAUCGGUCAG [Fam1A.1 aminoacylation ribozyme variant] | 0.934 | 1.22 | 0.728 | 0.715 | 0.603 | 0.567
18 | CUACUGCAAACAAUCGGACUG [Fam1A.1 aminoacylation ribozyme variant] | 0.763 | 0.547 | 0.64 | 1.02 | 0.932 | 0.654
19 | CUACUGCAAACAAUCGGUUUG [Fam1A.1 aminoacylation ribozyme variant] | 0.446 | 0.976 | 0.866 | 0.969 | 1.09 | 0.677
20 | CUACUGCAAACGAUCGGUCUG [Fam1A.1 aminoacylation ribozyme variant] | 0.688 | 0.572 | 0.694 | 0.88 | 1.2 | 0.743
21 | CUACUGCAAAGAAUCGGUCUG [Fam1A.1 aminoacylation ribozyme variant] | 0.681 | 1.92 | 0.773 | 0.81 | 0.747 | 0.798
22 | CUACUUAAAACAAUCGGCCUG [Fam1A.1 aminoacylation ribozyme variant] | 1.13 | 0.916 | 0.969 | 0.831 | 1.12 | 1.18
23 | CUACUUAAAACAAUCGGUCUG [Fam1A.1 aminoacylation ribozyme variant] | 0.65 | 0.859 | 0.78 | 0.786 | 0.637 | 0.767
24 | CUACUUAAAACAUUCGGUCUG [Fam1A.1 aminoacylation ribozyme variant] | 0.936 | 0.827 | 1.23 | 1.08 | 1.14 | 1.3
25 | CUACUUCAAAAAAUAGGUCUG [Fam1A.1 aminoacylation ribozyme variant] | 0.665 | 0.878 | 0.881 | 0.882 | 0.639 | 0.691
